Results as given in publication PMC5240526.

Tests used:
Experiment in all cases: CE-LIFP
[1] = target: RecA P67D P68D (Escherichia coli) (UniProt P0A7G6); settings: physiological ATP, lightly assembled filament, less density than wild type; 20 mM Tris-HCl pH 7.4, 10 mM Mg2+, 10 nM oligo, 0-3.0 uM RecA, 37 C 10 min; CE in 25 mM Tris, 192 mM glycine, 0.5 mM Ca2+, pH 8.3, room temperature; recombinant protein; label: 5'-TMR; single-stranded DNA
[2] = target: RecA P67Y P68Y (Escherichia coli) (UniProt P0A7G6); settings: physiological ATP, moderately assembled and saturated filaments; 20 mM Tris-HCl pH 7.4, 10 mM Mg2+, 10 nM oligo, 0-3.0 uM RecA, 37 C 10 min; CE in 25 mM Tris, 192 mM glycine, 0.5 mM Ca2+, pH 8.3, room temperature; recombinant protein; label: 5'-TMR; single-stranded DNA
[3] = target: RecA P67K P68K (Escherichia coli) (UniProt P0A7G6); settings: physiological ATP, moderately assembled and saturated filaments; 20 mM Tris-HCl pH 7.4, 10 mM Mg2+, 10 nM oligo, 0-3.0 uM RecA, 37 C 10 min; CE in 25 mM Tris, 192 mM glycine, 0.5 mM Ca2+, pH 8.3, room temperature; recombinant protein; label: 5'-TMR; single-stranded DNA
[4] = target: RecA wild type (Escherichia coli) (UniProt P0A7G6); settings: 0.1 mM ATPgS, no Mg2+, 3.0 uM RecA, saturated filament; 20 mM Tris-HCl pH 7.4, 10 mM Mg2+, 10 nM oligo, 0-3.0 uM RecA, 37 C 10 min; CE in 25 mM Tris, 192 mM glycine, 0.5 mM Ca2+, pH 8.3, room temperature; recombinant protein; label: 5'-TMR; single-stranded DNA
[5] = target: RecA P67R P68R (Escherichia coli) (UniProt P0A7G6); settings: physiological ATP, moderately assembled and saturated filaments; 20 mM Tris-HCl pH 7.4, 10 mM Mg2+, 10 nM oligo, 0-3.0 uM RecA, 37 C 10 min; CE in 25 mM Tris, 192 mM glycine, 0.5 mM Ca2+, pH 8.3, room temperature; recombinant protein; label: 5'-TMR; single-stranded DNA
[6] = target: RecA P67E P68E (Escherichia coli) (UniProt P0A7G6); settings: physiological ATP, lightly assembled filament, less density than wild type; 20 mM Tris-HCl pH 7.4, 10 mM Mg2+, 10 nM oligo, 0-3.0 uM RecA, 37 C 10 min; CE in 25 mM Tris, 192 mM glycine, 0.5 mM Ca2+, pH 8.3, room temperature; recombinant protein; label: 5'-TMR; single-stranded DNA

Measured: binding result

TTTCCTACCTTAAGATCCTTCCAGTCTCCGCCGGCCAGTGTTACCCTTAGAGCTCATACCATTCGCCAATTTCTTCGCACGTT [TMR-ss83mer]
binds: all assays above

For at least one entry, the source does not settle the construct or the ends of the probe. At least one verdict was read from the data and is not stated in words by the source.
